From the supplement of paper PMC4635364
Structures can show the parent of a compound that is named as a salt. Some of the results follow. Repeats in this data set agree poorly, so a single value says little.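 Cells: ReNCell VM human fetal ventral-midbrain neural progenitors, differentiated mitogen-free. Blinded raters compared doublecortin-stained (early neurons) or tyrosine hydroxylase-stained (dopaminergic neurons) images with untreated wells, where 0 means no change. After repeats and both raters were averaged, compounds scoring 2 or above became hits for retesting.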

Experiments:
ReNCell VM [1] = experiment: neuronal differentiation score (DCX+ cell fraction vs untreated, manual image score) (score (-3 to 3)); higher = more neuronal differentiation; conditions: 2 uM, 2 weeks
ReNCell VM [2] = experiment: dopaminergic neuron differentiation score (TH+ cell fraction vs untreated, manual image score) (score (0 to 3)); higher = more TH+ dopaminergic neuron differentiation; conditions: 2 uM, 4 weeks, BDNF 10 ng/ml + GDNF 10 ng/ml

**Q.** With `O=C(O)c1cc[c]([Hg][Cl])cc1` [4-Chloromercuribenzoic acid] as the compound, how does the neuronal differentiation score (ReNCell VM [1]; library: LOPAC) read?
**A.** Its neuronal differentiation score is inactive: 0.

**Q.** And the “dopaminergic neuron differentiation score” value (ReNCell VM [2]; library: LOPAC)?
**A.** Its value is inactive: 0.

**Q.** What does the source list for `NCC(O)c1cc(O)c(O)cc1F` (stereo unspecified) [6-Fluoronorepinephrine hydrochloride]?
**A.** neuronal differentiation score (ReNCell VM [1]; library: LOPAC): inactive: 0; dopaminergic neuron differentiation score (ReNCell VM [2]; library: LOPAC): inactive: 0

**Q.** What does the source list for `COc1cc2c(cc1O)CCN[C@@H]2C`?
**A.** neuronal differentiation score (ReNCell VM [1]; library: Spectrum): inactive: 0; dopaminergic neuron differentiation score (ReNCell VM [2]; library: Spectrum): inactive: 0

**Q.** Which neuronal differentiation score (ReNCell VM [1]; library: Spectrum) does the source give for `COP(=O)(OC)C(O)C(Cl)(Cl)Cl` (stereo unspecified) here?
**A.** The neuronal differentiation score was inactive: 0.

**Q.** And the “dopaminergic neuron differentiation score” value (ReNCell VM [2]; library: Spectrum)?
**A.** Its value is inactive: 0.

**Q.** Which results are given for `O=C(OC1CCN(CCCl)CC1)C(c1ccccc1)c1ccccc1` [4-Diphenylacetoxy-N-(2-chloroethyl)piperidine hydrochloride]?
**A.** neuronal differentiation score (ReNCell VM [1]; library: LOPAC): inactive: 0; dopaminergic neuron differentiation score (ReNCell VM [2]; library: LOPAC): inactive: 0

**Q.** `NC(N)=NOCC[C@H](N)C(=O)O` [L-Canavanine] was tested. Which neuronal differentiation score (ReNCell VM [1]; library: LOPAC) did it give?
**A.** The neuronal differentiation score was inactive: 0.

**Q.** And the “dopaminergic neuron differentiation score” value (ReNCell VM [2]; library: LOPAC)?
**A.** Its value is inactive: 0.

**Q.** With `Oc1cc2c(cc1O)[C@H]1c3ccccc3CN[C@@H]1CC2` (racemic) [Dihydrexidine hydrochloride] as the compound, how does the neuronal differentiation score (ReNCell VM [1]; library: Tocriscreen) read?
**A.** The neuronal differentiation score was inactive: -2.

**Q.** What about the “dopaminergic neuron differentiation score” value (ReNCell VM [2]; library: Tocriscreen) of the same compound?
**A.** Its value is inactive: 0.

**Q.** Which results are given for `C[C@]12CC[C@@H](O)C[C@@H]1CC[C@@H]1[C@@H]2CC[C@]2(C)C(=O)CC[C@@H]12`?
**A.** neuronal differentiation score (ReNCell VM [1]; library: Spectrum): inactive: 0; dopaminergic neuron differentiation score (ReNCell VM [2]; library: Spectrum): inactive: 0

**Q.** `NCC#Cc1ccccc1` [3-Phenylpropargylamine hydrochloride] was tested. Which neuronal differentiation score (ReNCell VM [1]; library: LOPAC) did it give?
**A.** Its neuronal differentiation score is inactive: 0.

**Q.** What about the “dopaminergic neuron differentiation score” value (ReNCell VM [2]; library: LOPAC) of the same compound?
**A.** The value was inactive: 0.

**Q.** What does the source list for `C[C@@H]1CC[C@H]2[C@@H](C)C(=O)O[C@@H]3O[C@@]4(C)CC[C@@H]1[C@]32OO4`?
**A.** neuronal differentiation score (ReNCell VM [1]; library: Spectrum): inactive: 0; dopaminergic neuron differentiation score (ReNCell VM [2]; library: Spectrum): inactive: 1

**Q.** How did the neuronal differentiation score (ReNCell VM [1]; library: Spectrum) turn out when `NCC(=O)c1ccccc1` was run?
**A.** The neuronal differentiation score was inactive: 0.

**Q.** What about the “dopaminergic neuron differentiation score” value (ReNCell VM [2]; library: Spectrum) of the same compound?
**A.** Its value is inactive: 0.

**Q.** Which results are given for `C[N+]1(C)CCc2cc3c(cc2[C@H]1[C@@H]1OC(=O)c2c1ccc1c2OCO1)OCO3`?
**A.** neuronal differentiation score (ReNCell VM [1]; library: Spectrum): inactive: 0; dopaminergic neuron differentiation score (ReNCell VM [2]; library: Spectrum): inactive: 0

**Q.** How did the neuronal differentiation score (ReNCell VM [1]; library: LOPAC) turn out when `CCCN1CCO[C@@H]2c3cc(O)ccc3OC[C@H]21` [S(+)-PD 128,907 hydrochloride] was run?
**A.** The neuronal differentiation score was inactive: 0.

**Q.** And the “dopaminergic neuron differentiation score” value (ReNCell VM [2]; library: LOPAC)?
**A.** The value was inactive: 0.

**Q.** What does the source list for `CC(=O)O[C@@H]1C[C@H]2C(C)(C)C(=O)C=C[C@]2(C)[C@H]2CC[C@]3(C)C(=CC(=O)O[C@H]3c3ccoc3)[C@@]21C`?
**A.** neuronal differentiation score (ReNCell VM [1]; library: Spectrum): inactive: 0; dopaminergic neuron differentiation score (ReNCell VM [2]; library: Spectrum): inactive: 0

**Q.** What does the source list for `CCS(=O)(=O)Nc1cccc(C(=C2CCCCC2)c2cnc[nH]2)c1`?
**A.** neuronal differentiation score (ReNCell VM [1]; library: LOPAC): inactive: 0; dopaminergic neuron differentiation score (ReNCell VM [2]; library: LOPAC): active: 2

**Q.** Which neuronal differentiation score (ReNCell VM [1]; library: LOPAC) does the source give for `NC(=O)c1ccc(OCC(O)CN2CC=C(c3ccc(F)cc3)CC2)cc1` (stereo unspecified) here?
**A.** The neuronal differentiation score was inactive: 0.

**Q.** What about the “dopaminergic neuron differentiation score” value (ReNCell VM [2]; library: LOPAC) of the same compound?
**A.** Its value is inactive: 0.

**Q.** Which results are given for `CCN(C)C(=O)Oc1cccc([C@H](C)N(C)C)c1`?
**A.** neuronal differentiation score (ReNCell VM [1]; library: Spectrum): inactive: 0; dopaminergic neuron differentiation score (ReNCell VM [2]; library: Spectrum): inactive: 0

**Q.** Which results are given for `O=c1[nH]c(=O)n(Cl)c(=O)n1Cl`?
**A.** neuronal differentiation score (ReNCell VM [1]; library: Spectrum): inactive: 0; dopaminergic neuron differentiation score (ReNCell VM [2]; library: Spectrum): inactive: 0

**Q.** Which neuronal differentiation score (ReNCell VM [1]; library: Prestwick) does the source give for `O=C(CCCN1CCC2(CC1)C(=O)NCN2c1ccccc1)c1ccc(F)cc1` [Spiperone] here?
**A.** Its neuronal differentiation score is inactive: 0.

**Q.** What about the “dopaminergic neuron differentiation score” value (ReNCell VM [2]; library: Prestwick) of the same compound?
**A.** The value was inactive: 0.

**Q.** With `CN(C(=O)Cc1ccccc1)C(CN1CCCC1)c1ccccc1` (stereo unspecified) [N-MPPP Hydrochloride] as the compound, how does the neuronal differentiation score (ReNCell VM [1]; library: Tocriscreen) read?
**A.** The neuronal differentiation score was inactive: 1.

**Q.** What about the “dopaminergic neuron differentiation score” value (ReNCell VM [2]; library: Tocriscreen) of the same compound?
**A.** Its value is inactive: 1.

**Q.** What does the source list for `Nc1ccc([As](=O)(O)O)cc1`?
**A.** neuronal differentiation score (ReNCell VM [1]; library: Spectrum): inactive: 1; dopaminergic neuron differentiation score (ReNCell VM [2]; library: Spectrum): inactive: 0

**Q.** Which results are given for `Cc1cc(C(C#N)c2ccc(Cl)cc2)c(Cl)cc1NC(=O)c1cc(I)cc(I)c1O` (stereo unspecified)?
**A.** neuronal differentiation score (ReNCell VM [1]; library: Spectrum): inactive: 0; dopaminergic neuron differentiation score (ReNCell VM [2]; library: Spectrum): inactive: 0

**Q.** Which neuronal differentiation score (ReNCell VM [1]; library: Spectrum) does the source give for `CCC(=O)O[C@H]1CC[C@H]2[C@@H]3CCC4=CC(=O)CC[C@]4(C)[C@H]3CC[C@]12C` here?
**A.** The neuronal differentiation score was inactive: 0.

**Q.** What about the “dopaminergic neuron differentiation score” value (ReNCell VM [2]; library: Spectrum) of the same compound?
**A.** Its value is inactive: 0.

**Q.** With `Cc1[nH]c2ccc(O)cc2c1CCN` [2-Methyl-5-hydroxytryptamine hydrochloride] as the compound, how does the neuronal differentiation score (ReNCell VM [1]; library: Tocriscreen) read?
**A.** Its neuronal differentiation score is inactive: 0.

**Q.** And the “dopaminergic neuron differentiation score” value (ReNCell VM [2]; library: Tocriscreen)?
**A.** The value was inactive: 0.

**Q.** For `COc1cc2c(cc1OC)-c1c(oc3c4c(ccc3c1=O)OC(C(C)C)C4)CO2` (stereo unspecified), which neuronal differentiation score (ReNCell VM [1]; library: Spectrum) is on record?
**A.** Its neuronal differentiation score is inactive: 0.

**Q.** And the “dopaminergic neuron differentiation score” value (ReNCell VM [2]; library: Spectrum)?
**A.** The value was inactive: 0.

**Q.** `CC1(C)C(O)CC(O)C2(C)C1CC(O)C1(C)C2CCC2(C)C(c3ccoc3)CC3OC321` (stereo unspecified) [havanensin] was tested. Which neuronal differentiation score (ReNCell VM [1]; library: Natural) did it give?
**A.** Its neuronal differentiation score is inactive: 0.

**Q.** What about the “dopaminergic neuron differentiation score” value (ReNCell VM [2]; library: Natural) of the same compound?
**A.** Its value is inactive: 0.

**Q.** Which neuronal differentiation score (ReNCell VM [1]; library: Prestwick) does the source give for `COc1ccc(CN2CCNCC2)c(OC)c1OC` [Trimetazidine dihydrochloride] here?
**A.** The neuronal differentiation score was inactive: 0.

**Q.** And the “dopaminergic neuron differentiation score” value (ReNCell VM [2]; library: Prestwick)?
**A.** The value was inactive: 0.

**Q.** Which neuronal differentiation score (ReNCell VM [1]; library: Tocriscreen) does the source give for `N[C@@]1(C(=O)O)CC[C@@H](C(=O)O)C1` here?
**A.** The neuronal differentiation score was inactive: 0.

**Q.** And the “dopaminergic neuron differentiation score” value (ReNCell VM [2]; library: Tocriscreen)?
**A.** Its value is inactive: 0.

**Q.** Which results are given for `CC(N)C(O)c1ccc(O)c(O)c1` (single isomer, unassigned; (-)) [(-)-alpha-Methylnorepinephrine]?
**A.** neuronal differentiation score (ReNCell VM [1]; library: LOPAC): inactive: 1; dopaminergic neuron differentiation score (ReNCell VM [2]; library: LOPAC): inactive: 0

**Q.** `COc1cc2c(cc1OC)[C@@]13CCN4CC5=CCO[C@H]6CC(=O)N2[C@H]1[C@H]6[C@H]5C[C@H]43` [Brucine] was tested. Which neuronal differentiation score (ReNCell VM [1]; library: Phytochemical) did it give?
**A.** Its neuronal differentiation score is inactive: 0.

**Q.** And the “dopaminergic neuron differentiation score” value (ReNCell VM [2]; library: Phytochemical)?
**A.** Its value is inactive: 0.

**Q.** With `Cc1ccc(C[N+](C)(C)C)o1` [5-Methylfurmethiodide] as the compound, how does the neuronal differentiation score (ReNCell VM [1]; library: Tocriscreen) read?
**A.** Its neuronal differentiation score is inactive: 0.

**Q.** And the “dopaminergic neuron differentiation score” value (ReNCell VM [2]; library: Tocriscreen)?
**A.** Its value is inactive: 0.

**Q.** `CN1[C@@H]2CC[C@H]1C[C@@H](OC(=O)c1cc(Cl)cc(Cl)c1)C2` [3-Tropanyl-3,5-dichlorobenzoate] was tested. Which neuronal differentiation score (ReNCell VM [1]; library: LOPAC) did it give?
**A.** Its neuronal differentiation score is inactive: 0.

**Q.** And the “dopaminergic neuron differentiation score” value (ReNCell VM [2]; library: LOPAC)?
**A.** Its value is inactive: 0.

**Q.** With `CC[C@H]1CN2CC[C@H]1C[C@H]2[C@H](O)c1ccnc2ccc(OC)cc12` as the compound, how does the neuronal differentiation score (ReNCell VM [1]; library: Spectrum) read?
**A.** The neuronal differentiation score was inactive: 0.

**Q.** And the “dopaminergic neuron differentiation score” value (ReNCell VM [2]; library: Spectrum)?
**A.** The value was inactive: 0.
